Test results taken from the supplement of paper PMC12024529.
Counter-ions that a name gives are not always drawn. The list shows a part of the results. Part of the spread comes from offsets between plates or batches.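 Wild-type or misfolding-prone missense mutant B-domain-deleted factor VIII, fused to Gaussia luciferase, is stably expressed in HEK293 lines. Each score is (mean triplicate-well luminescence minus DMSO mean) divided by DMSO standard deviation. Hits score at least 2; lower scores could stem from decreased secretion or poorer cell viability.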

Columns and labels:
HEK293 WT BDD-FVIII-Gluc = assay: secreted FVIII-Gluc luciferase Z-score vs DMSO control; higher = more FVIII-Gluc secretion; conditions: 5 µM; 24 h
[1] = test system: HEK293 p.N1941S BDD-FVIII-Gluc; assay: as above; conditions: 5 µM; 24 h

Structure (SMILES)	secreted FVIII-Gluc luciferase Z-score (HEK293 WT BDD-FVIII-Gluc)	secreted FVIII-Gluc luciferase Z-score [1]
COc1cc([C@@H]2c3cc4c(cc3[C@@H](O[C@@H]3O[C@@H]5CO[C@@H](c6cccs6)O[C@H]5[C@H](O)[C@H]3O)[C@H]3COC(=O)[C@H]23)OCO4)cc(OC)c1O [Teniposide (Vumon)]	inactive: -10.4	inactive: -6.15
[O-][n+]1cccc(CO)c1 [Mepiroxol]	inactive: 0.909	inactive: 1.17
O=C1N=C(O)NC1(c1ccccc1)c1ccccc1 [Phenytoin sodium (Dilantin)]	inactive: -1.65	inactive: -0.235
CC(N)C12CC3CC(CC(C3)C1)C2 (stereo not drawn) [Rimantadine (Flumadine)]	inactive: -0.967	inactive: -0.568
CCCCc1oc2ccc(NS(C)(=O)=O)cc2c1C(=O)c1ccc(OCCCN(CCCC)CCCC)cc1 [Dronedarone HCl (Multaq)]	inactive: -0.0311	inactive: -1.17
C[C@@H](c1ncncc1F)[C@](O)(Cn1cncn1)c1ccc(F)cc1F [Voriconazole]	inactive: -1.95	inactive: -0.18
CN1CCC[C@H]1c1cccnc1 [Nicotine Ditartrate]	inactive: 0.042	inactive: 1.81
CCCCC1C(=O)N(c2ccccc2)N(c2ccccc2)C1=O [Phenylbutazone (Butazolidin, Butatron)]	inactive: -4.04	inactive: -1.04
Cc1ccc(Nc2nccc(N(C)c3ccc4c(C)n(C)nc4c3)n2)cc1S(N)(=O)=O [Pazopanib]	inactive: -7.01	inactive: -1.51

Quoted from the listing.
In secreted FVIII-Gluc luciferase Z-score (HEK293 WT BDD-FVIII-Gluc), CCCCC1C(=O)N(c2ccccc2)N(c2ccccc2)C1=O [Phenylbutazone (Butazolidin, Butatron)] reads inactive: -4.04
In secreted FVIII-Gluc luciferase Z-score (HEK293 WT BDD-FVIII-Gluc), COc1cc([C@@H]2c3cc4c(cc3[C@@H](O[C@@H]3O[C@@H]5CO[C@@H](c6cccs6)O[C@H]5[C@H](O)[C@H]3O)[C@H]3COC(=O)[C@H]23)OCO4)cc(OC)c1O [Teniposide (Vumon)] reads inactive: -10.4
